“And” between values parts separate entries of the source, which are not always exact repeats. Equal entries are not always repeated. Structures can show the parent of a compound that is named as a salt. The list shows a part of the results. Repeats in this data set agree poorly, so a single value says little.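 HEK293T cells were given each compound shortly before transfection with a reporter in which red mCherry is followed by the SARS-CoV-2 frameshift element and then GFP in the −1 frame, so GFP appears only after frameshifting.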
system: HEK293T; experiment: percent viability (nuclei count) relative to control; higher = more viable cells; settings: 10 µM; 24 h

Going from `Clc1ccc(Cn2c(CN3CCCC3)nc3ccccc32)cc1` to `Clc1ccc(C(c2ccccc2Cl)C(Cl)Cl)cc1` (stereo not given) [mitotane], the percent viability falls from 306% to 159%.

First: CN(C)CC/C=C1\c2ccccc2CSc2ccccc21 [dosulepin]
Second: CCN1CCC(=C2c3ccccc3CCc3ccccc32)C1C (stereo not given) [piroheptine]
The percent viability of the first is lower: 185% for the first, 187% for the second.

First: OCc1ccccn1
Second: CC=CC(=O)N(CC)c1ccccc1C
The percent viability of the first is lower: 76.7% for the first, 240% for the second.

First: CCCCC(C)(O)C/C=C/[C@H]1[C@H](O)CC(=O)[C@@H]1CCCCCCC(=O)OC (stereo not given in full) [Cytotec]
Second: CCCCC(CC)CCC(CC(C)C)OS(=O)(=O)O (stereo not given)
The percent viability of the first is lower: 237% for the first, 243% for the second.

Compared with `O=C1CN2Cc3c(ccc(Cl)c3Cl)N=C2N1` [Anagrelide], `NS(=O)(=O)c1cc2c(cc1Cl)N=CNS2(=O)=O` [chlorothiazide] is lower in percent viability: 212% for the first, 193% for the second.

First: CC(C)(Oc1ccc(C2CC2(Cl)Cl)cc1)C(=O)O (stereo not given) [ciprofibrate]
Second: CC(C)(N)C(=O)N[C@H](COCc1ccccc1)C(=O)N1CCC2(CC1)CN(S(C)(=O)=O)c1ccccc12 [ibutamoren]
The percent viability of the first is lower: 197% for the first, 216% for the second.

Going from `Nc1nc(N)c2nc(-c3ccccc3)c(N)nc2n1` [triamterene] to `NNC(=O)c1ccncc1.Nc1ccc(C(=O)O)c(O)c1` [pasiniazid], the percent viability rises from 141% to 178%.

First: CN(C)[C@@H]1C(=O)C(C(=O)NCNCCCC[C@H](N)C(=O)O)=C(O)[C@@]2(O)C(=O)C3=C(O)c4c(O)cccc4[C@@](C)(O)[C@H]3C[C@@H]12 [lymecycline]
Second: CCC(=O)O[C@]1(C(=O)SCF)[C@H](C)C[C@H]2[C@@H]3C[C@H](F)C4=CC(=O)C=C[C@]4(C)[C@@]3(F)[C@@H](O)C[C@@]21C
The percent viability of the first is higher: 233% for the first, 157% for the second.

Compared with `C[C@H]1COc2c(C3(N)CC3)c(F)cc3c(=O)c(C(=O)O)cn1c23`, `COc1c(C)c2c(c(O)c1C/C=C(\C)CCC(=O)OCCN1CCOCC1)C(=O)OC2` [Mycophenolate mofetil] is lower in percent viability: 239% for the first, 12.6% for the second.

Compared with `N[C@@H](CC(=O)O)C(=O)O` [aspartic acid], `COC(=O)C1=C(C)NC(C)=C(C(=O)OC/C=C/c2ccccc2)C1c1cccc([N+](=O)[O-])c1` (stereo not given) [pranidipine] is higher in percent viability: 113% for the first, 216% for the second.

First: Cc1c(CN2CCOC(c3ccccc3)C2C)c(=O)n(-c2ccccc2)n1C (stereo not given) [morazone]
Second: OCCOCCN1CCN(C(c2ccccc2)c2ccccc2)CC1 [decloxizine]
The percent viability of the first is higher: 286% for the first, 171% for the second.

Compared with `Cn1c(=O)c2c(ncn2CC(O)CO)n(C)c1=O` (stereo not given) [diprophylline], `Cc1ncc([N+](=O)[O-])n1CC(O)CCl` (stereo not given) [ornidazole] is higher in percent viability: 146% for the first, 245% for the second.

Compared with `NC(N)=Nc1nc(CSCC/C(N)=N/S(N)(=O)=O)cs1`, `NS(=O)(=O)c1ccc(Cl)c(S(N)(=O)=O)c1` [clofenamide] is lower in percent viability: 313% for the first, 259% for the second.

Going from `CNCCCC1(c2ccccc2)OC(C)(C)c2ccccc21` (stereo not given) [talopram] to `CCN(CC)CCNC(=O)c1ccc(NS(C)(=O)=O)cc1` [sematilide], the percent viability falls from 122% to 46.7%.

Going from `O=C(O[C@@H]1C[C@@H]2C[C@H]3C[C@H](C1)N2CC3=O)c1c[nH]c2ccccc12` [Dolasetron] to `COc1cc2c(cc1OC)C(=O)C(CC1CCN(Cc3ccccc3)CC1)C2` (stereo not given) [Donepezil·HCl], the percent viability falls from 282% to 239%.

Compared with `NS(=O)(=O)c1cc2c(cc1C(F)(F)F)NC(Cc1ccccc1)NS2(=O)=O` (stereo not given) [bendroflumethiazide], `NCCCC[C@H](NC(=O)[C@@H]1CCCN1C(=O)[C@@H]1CSSC[C@H](N)C(=O)N[C@@H](Cc2ccccc2)C(=O)N[C@@H](Cc2ccccc2)C(=O)N[C@@H](CCC(N)=O)C(=O)N[C@@H](CC(N)=O)C(=O)N1)C(=O)NCC(N)=O` [Felypressin] is lower in percent viability: 312% for the first, 302% for the second.

First: CO[C@H]1C[C@@H]2CC[C@@H](C)[C@@](O)(O2)C(=O)C(=O)N2CCCC[C@H]2C(=O)O[C@H]([C@H](C)C[C@@H]2CC[C@@H](O)[C@H](OC)C2)CC(=O)[C@H](C)/C=C(\C)[C@@H](O)[C@@H](OC)C(=O)[C@H](C)C[C@H](C)/C=C/C=C/C=C/1C [Sirolimus]
Second: CC(=O)O[C@]1(C(C)=O)CC[C@H]2[C@@H]3C=C(Cl)C4=CC(=O)[C@@H]5C[C@@H]5[C@]4(C)[C@H]3CC[C@@]21C [Cyproterone Acetate]
The percent viability of the first is lower: 118% for the first, 179% for the second.

In the case of `Cc1ncc(CSSCc2cnc(C)c(O)c2CO)c(CO)c1O` [pyritinol], the percent viability is reported as 157%.

With `C[C@@H]1C[C@H]2[C@@H]3CCC4=CC(=O)C=C[C@]4(C)[C@@]3(F)[C@@H](O)C[C@]2(C)[C@@]1(O)C(=O)CO` [dexamethasone] the percent viability was 213% and 184%.
With `Cn1ccnc1S` [thiamazole] the percent viability was 143% and 266%.
In the case of `CCCCc1ncc(/C=C(\Cc2cccs2)C(=O)O)n1Cc1ccc(C(=O)O)cc1` [eprosartan], the percent viability is reported as 300% and 247%.
With `Clc1ccc(CO/N=C(\Cn2ccnc2)c2ccc(Cl)cc2Cl)c(Cl)c1` [Oxiconazole] the percent viability was 309% and 203%.
In the case of `CC(C)(Oc1ccc(CCNC(=O)c2ccc(Cl)cc2)cc1)C(=O)O` [bezafibrate], the percent viability is reported as 284% and 119%.

From the supplement of paper PMC8256030
